Data reported in the supplement of paper PMC10849652.
Some of the results follow.

Protein sequences, listed by entry. Tags and fused reporters are not part of them. Lines headed by an entry give the natural chain unless they say otherwise; changes in a name come on top.
UniProt Q8TAD4: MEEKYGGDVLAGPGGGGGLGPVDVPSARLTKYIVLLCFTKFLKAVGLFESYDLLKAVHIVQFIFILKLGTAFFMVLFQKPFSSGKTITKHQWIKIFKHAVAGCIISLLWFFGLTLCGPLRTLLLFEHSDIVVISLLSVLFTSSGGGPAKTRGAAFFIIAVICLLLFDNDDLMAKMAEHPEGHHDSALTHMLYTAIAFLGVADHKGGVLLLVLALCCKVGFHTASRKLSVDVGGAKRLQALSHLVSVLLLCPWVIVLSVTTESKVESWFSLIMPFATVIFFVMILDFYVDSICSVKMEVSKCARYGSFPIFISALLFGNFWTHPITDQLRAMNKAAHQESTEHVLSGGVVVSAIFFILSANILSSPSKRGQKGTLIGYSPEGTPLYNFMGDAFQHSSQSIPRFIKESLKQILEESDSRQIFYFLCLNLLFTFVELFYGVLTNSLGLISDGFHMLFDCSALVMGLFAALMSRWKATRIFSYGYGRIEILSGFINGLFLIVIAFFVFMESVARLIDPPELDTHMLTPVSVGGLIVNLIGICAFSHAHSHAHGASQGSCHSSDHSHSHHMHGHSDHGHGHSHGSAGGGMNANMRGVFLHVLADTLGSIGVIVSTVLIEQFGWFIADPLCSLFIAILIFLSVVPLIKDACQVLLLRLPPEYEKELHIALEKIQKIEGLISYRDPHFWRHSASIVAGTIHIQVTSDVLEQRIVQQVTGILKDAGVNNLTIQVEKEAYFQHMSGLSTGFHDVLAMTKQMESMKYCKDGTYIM
UniProt Q8IXU6: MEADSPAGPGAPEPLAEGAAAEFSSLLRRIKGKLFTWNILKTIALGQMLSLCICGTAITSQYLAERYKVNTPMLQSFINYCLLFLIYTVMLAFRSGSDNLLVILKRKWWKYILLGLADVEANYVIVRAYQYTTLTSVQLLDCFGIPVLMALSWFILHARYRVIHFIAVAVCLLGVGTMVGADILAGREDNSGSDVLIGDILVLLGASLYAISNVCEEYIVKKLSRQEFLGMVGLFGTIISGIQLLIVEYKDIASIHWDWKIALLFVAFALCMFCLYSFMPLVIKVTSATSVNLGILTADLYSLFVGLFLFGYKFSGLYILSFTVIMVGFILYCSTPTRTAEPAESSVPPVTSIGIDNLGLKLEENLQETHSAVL
UniProt Q9UHW9: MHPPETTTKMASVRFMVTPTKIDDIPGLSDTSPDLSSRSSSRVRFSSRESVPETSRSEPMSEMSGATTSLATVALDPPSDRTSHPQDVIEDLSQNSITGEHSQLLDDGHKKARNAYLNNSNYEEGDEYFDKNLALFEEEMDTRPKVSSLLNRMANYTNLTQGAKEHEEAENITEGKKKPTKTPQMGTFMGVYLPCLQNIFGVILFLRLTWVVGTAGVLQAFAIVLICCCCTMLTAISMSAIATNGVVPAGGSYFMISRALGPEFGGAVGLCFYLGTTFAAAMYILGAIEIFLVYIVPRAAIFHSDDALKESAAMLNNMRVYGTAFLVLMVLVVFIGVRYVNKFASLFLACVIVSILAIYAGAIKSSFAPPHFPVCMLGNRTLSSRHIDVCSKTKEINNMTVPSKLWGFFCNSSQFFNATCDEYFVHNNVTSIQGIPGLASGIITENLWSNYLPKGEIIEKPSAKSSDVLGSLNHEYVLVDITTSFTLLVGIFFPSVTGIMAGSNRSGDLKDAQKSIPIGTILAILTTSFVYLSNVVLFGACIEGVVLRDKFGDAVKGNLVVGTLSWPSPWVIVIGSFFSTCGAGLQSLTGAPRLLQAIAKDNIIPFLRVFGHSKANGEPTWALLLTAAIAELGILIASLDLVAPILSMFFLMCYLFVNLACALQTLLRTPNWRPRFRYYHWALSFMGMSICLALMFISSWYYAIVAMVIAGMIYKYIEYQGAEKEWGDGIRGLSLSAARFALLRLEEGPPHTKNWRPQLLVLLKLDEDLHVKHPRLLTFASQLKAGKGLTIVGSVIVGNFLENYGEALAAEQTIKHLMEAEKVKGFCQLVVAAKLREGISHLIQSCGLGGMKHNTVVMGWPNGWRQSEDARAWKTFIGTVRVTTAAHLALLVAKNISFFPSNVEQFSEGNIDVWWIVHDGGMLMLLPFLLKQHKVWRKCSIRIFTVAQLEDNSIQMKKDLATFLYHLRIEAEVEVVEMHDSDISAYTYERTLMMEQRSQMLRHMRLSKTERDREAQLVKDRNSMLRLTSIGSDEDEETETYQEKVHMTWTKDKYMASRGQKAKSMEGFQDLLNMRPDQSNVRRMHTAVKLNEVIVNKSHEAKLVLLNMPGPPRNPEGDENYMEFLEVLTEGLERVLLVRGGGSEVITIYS
UniProt P11169: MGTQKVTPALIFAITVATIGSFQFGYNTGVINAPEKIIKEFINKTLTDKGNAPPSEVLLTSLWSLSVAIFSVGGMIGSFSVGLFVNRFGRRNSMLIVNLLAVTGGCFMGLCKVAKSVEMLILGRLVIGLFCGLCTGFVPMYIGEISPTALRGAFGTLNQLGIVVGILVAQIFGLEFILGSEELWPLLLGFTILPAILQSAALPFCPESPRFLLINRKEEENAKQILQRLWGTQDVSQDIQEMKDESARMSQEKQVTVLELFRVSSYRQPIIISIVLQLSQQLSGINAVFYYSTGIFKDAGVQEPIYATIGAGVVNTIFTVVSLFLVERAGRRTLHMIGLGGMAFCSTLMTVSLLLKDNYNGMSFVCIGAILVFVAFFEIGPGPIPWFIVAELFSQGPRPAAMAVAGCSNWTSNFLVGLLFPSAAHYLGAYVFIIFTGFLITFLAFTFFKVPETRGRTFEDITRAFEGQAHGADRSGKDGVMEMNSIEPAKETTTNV
UniProt O00400: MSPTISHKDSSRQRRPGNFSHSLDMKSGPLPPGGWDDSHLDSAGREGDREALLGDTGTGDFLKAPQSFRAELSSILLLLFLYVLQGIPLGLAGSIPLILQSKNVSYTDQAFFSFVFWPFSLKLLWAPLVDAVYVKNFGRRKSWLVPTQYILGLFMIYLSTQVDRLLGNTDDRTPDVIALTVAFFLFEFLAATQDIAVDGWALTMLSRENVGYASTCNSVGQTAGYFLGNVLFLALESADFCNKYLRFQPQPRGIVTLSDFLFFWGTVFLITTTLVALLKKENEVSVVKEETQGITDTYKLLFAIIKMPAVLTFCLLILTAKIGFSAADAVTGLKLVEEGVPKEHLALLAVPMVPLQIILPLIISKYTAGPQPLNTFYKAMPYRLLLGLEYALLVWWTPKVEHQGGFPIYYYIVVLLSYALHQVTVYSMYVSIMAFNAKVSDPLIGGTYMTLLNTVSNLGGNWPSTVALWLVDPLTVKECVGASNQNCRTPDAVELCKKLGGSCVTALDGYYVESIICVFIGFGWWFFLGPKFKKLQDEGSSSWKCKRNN
UniProt O14975, whole entry, looked up: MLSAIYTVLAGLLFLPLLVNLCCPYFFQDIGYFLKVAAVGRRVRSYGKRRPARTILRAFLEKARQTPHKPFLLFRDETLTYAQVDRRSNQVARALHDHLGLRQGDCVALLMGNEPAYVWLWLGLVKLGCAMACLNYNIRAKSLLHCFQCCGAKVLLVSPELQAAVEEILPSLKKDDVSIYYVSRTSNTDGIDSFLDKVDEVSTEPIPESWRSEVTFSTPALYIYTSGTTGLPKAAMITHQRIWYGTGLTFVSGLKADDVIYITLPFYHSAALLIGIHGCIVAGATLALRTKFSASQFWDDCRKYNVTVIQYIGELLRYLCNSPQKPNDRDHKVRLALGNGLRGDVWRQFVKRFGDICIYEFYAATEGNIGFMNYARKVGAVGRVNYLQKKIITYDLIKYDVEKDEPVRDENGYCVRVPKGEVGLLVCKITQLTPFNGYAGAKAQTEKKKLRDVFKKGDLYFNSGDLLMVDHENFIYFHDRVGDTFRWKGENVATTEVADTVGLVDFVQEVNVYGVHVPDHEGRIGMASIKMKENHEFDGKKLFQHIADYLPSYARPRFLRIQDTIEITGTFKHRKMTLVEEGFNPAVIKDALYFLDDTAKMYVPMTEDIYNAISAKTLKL
UniProt P16260: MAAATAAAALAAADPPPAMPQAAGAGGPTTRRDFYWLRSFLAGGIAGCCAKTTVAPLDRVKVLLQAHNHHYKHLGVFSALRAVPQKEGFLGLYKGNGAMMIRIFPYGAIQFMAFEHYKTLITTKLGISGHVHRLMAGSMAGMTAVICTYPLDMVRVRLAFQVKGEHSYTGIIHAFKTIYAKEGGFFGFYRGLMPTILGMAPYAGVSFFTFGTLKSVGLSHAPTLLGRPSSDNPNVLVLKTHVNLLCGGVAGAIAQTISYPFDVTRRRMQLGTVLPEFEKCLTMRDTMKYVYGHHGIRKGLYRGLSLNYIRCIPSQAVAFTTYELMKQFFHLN
UniProt L0R6Q1: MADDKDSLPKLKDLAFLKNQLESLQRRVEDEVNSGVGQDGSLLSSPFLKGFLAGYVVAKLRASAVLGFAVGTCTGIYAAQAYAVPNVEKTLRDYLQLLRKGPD
UniProt Q96QD8: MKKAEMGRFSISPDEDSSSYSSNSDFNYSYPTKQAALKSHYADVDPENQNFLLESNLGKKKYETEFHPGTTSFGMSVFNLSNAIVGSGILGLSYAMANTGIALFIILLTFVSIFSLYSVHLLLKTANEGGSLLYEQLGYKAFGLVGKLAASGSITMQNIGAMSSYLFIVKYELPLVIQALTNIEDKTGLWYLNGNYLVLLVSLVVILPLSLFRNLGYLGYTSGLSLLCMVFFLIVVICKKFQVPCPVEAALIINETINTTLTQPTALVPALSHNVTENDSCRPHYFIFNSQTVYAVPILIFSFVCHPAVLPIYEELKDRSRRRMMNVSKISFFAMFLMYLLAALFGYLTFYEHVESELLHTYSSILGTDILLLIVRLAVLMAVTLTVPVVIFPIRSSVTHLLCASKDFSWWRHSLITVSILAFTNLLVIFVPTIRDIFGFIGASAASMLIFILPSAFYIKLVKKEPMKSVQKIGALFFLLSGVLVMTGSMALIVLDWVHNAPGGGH
UniProt P04920: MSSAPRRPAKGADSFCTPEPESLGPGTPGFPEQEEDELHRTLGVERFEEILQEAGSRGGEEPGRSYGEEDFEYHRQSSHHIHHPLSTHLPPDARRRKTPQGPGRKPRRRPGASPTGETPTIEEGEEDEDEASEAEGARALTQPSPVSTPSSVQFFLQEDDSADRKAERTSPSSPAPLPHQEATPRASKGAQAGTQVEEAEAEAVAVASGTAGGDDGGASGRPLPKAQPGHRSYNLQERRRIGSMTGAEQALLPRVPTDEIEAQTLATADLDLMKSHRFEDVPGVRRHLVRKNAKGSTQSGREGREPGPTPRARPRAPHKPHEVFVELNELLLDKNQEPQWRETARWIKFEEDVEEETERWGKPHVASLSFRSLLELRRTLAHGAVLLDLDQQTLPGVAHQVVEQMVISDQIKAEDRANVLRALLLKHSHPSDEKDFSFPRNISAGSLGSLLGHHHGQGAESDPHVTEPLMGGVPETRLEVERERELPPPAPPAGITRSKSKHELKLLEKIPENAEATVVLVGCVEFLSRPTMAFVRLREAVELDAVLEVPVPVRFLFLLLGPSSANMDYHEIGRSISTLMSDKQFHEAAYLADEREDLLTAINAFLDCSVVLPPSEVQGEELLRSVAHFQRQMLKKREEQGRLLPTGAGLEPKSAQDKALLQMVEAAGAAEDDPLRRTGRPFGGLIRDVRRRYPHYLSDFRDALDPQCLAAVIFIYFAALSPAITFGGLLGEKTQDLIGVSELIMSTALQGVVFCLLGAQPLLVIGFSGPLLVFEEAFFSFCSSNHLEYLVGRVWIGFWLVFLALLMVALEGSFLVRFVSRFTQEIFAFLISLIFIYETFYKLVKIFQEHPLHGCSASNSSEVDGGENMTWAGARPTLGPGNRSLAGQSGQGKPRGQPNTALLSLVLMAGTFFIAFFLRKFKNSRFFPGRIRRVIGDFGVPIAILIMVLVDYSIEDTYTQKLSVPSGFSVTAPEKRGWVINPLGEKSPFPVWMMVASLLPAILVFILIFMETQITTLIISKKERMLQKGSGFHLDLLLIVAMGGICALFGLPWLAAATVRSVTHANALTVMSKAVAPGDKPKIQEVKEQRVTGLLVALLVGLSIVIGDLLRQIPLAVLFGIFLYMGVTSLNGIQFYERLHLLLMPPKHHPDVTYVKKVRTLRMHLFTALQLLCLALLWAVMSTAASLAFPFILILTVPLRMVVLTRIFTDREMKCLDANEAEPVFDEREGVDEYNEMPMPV
UniProt Q96CQ1: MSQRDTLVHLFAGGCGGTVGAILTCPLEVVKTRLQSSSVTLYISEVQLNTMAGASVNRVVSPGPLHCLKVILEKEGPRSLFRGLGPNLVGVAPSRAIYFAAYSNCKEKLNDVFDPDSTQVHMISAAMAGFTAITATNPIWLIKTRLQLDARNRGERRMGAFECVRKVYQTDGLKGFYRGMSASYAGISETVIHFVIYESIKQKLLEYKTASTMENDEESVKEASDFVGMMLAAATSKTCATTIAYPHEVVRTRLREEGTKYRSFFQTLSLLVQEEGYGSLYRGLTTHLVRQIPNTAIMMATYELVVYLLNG

How the values were obtained:
Experiment in all cases: log2 fold change, soluble protein after heating vs DMSO (PISA); higher = thermal stabilisation; K562 cells, 10 uM, 30 min; active = over 0.2 and 3.5 SD of the protein, either way, in both replicates (recomputed)
[1] = compound: COC1=CC=C(C=C1)CN2C=CC3=C2C=C(C=C3)C(=O)NO
Summary of the method: (§1)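 K562 cells at 2×10^6 cells/mL were given 10 μM compound for 30 min. Aliquots then went through 3 min of heating across 48°C-58°C, were pooled, and were extracted in PBS with 0.5% NP-40 at 4°C, and the supernatant after 21,000xg for 90 min was quantified by TMTpro 16plex LC-MS/MS with channel sums equalised. Thermal stability relative to control samples, from duplicates, is given as log2 fold change.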

[2] = compound: CON(C)C(=O)N1N=C(c2cc(F)ccc2F)S[C@@]1(CCCN)c1ccccc1 [filanesib]
Summary of the method: as §1

[3] = compound: CO[C@H]1C[C@@H]2CC[C@@H](C)[C@@](O)(O2)C(=O)C(=O)N2CCCC[C@H]2C(=O)O[C@H]([C@H](C)C[C@@H]2CC[C@H](n3cnnn3)[C@H](OC)C2)CC(=O)[C@H](C)/C=C(\C)[C@@H](O)[C@@H](OC)C(=O)[C@H](C)C[C@H](C)/C=C/C=C/C=C/1C [zotarolimus]
Summary of the method: as §1

[4] = compound: COc1cc(C(=O)O)ccc1NC(=O)[C@@H]1N[C@@H](CC(C)(C)C)[C@](C#N)(c2ccc(Cl)cc2F)[C@H]1c1cccc(Cl)c1F [idasanutlin]
Summary of the method: as §1

[5] = compound: COc1cc(Nc2ncc3c(n2)-c2ccc(Cl)cc2C(c2c(F)cccc2OC)=NC3)ccc1C(=O)O [alisertib]
Summary of the method: as §1

[6] = compound: COc1cc2nc(-c3cc(F)ccc3O)nc(N[C@@H]3CNC[C@H]3C(C)(C)O)c2cc1OC
Summary of the method: as §1

[7] = compound: COc1cc2ncnc(Nc3ccc(F)c(Cl)c3)c2cc1OCCCN1CCOCC1 [gefitinib]
Summary of the method: as §1

[8] = compound: COc1cccc2cc(-c3nc([C@H]4CC[C@H](C(=O)O)CC4)n4ncnc(N)c34)[nH]c12
Summary of the method: as §1

[9] = compound: CS(=O)(=O)CCNCc1ccc(-c2ccc3ncnc(Nc4ccc(OCc5cccc(F)c5)c(Cl)c4)c3c2)o1 [lapatinib]
Summary of the method: as §1

[10] = compound: CS(=O)(=O)N1CCN(Cc2cc3nc(-c4cccc5[nH]ncc45)nc(N4CCOCC4)c3s2)CC1 [pictilisib]
Summary of the method: as §1

Measured: log2 fold change

SLC25A11 (UniProt Q02978)
inactive: [1] -0.003 | [2] -0.055 | [3] -0.021 | [4] -0.003 | [5] -0.095 | [6] 0.024 | [7] 0.043 | [8] 0.05 | [9] 0.045 | [10] -0.017

SLC43A3 isoform 2 (UniProt Q8NBI5)
inactive: [1] -0.003 | [2] 0.026 | [3] -0.026 | [4] 0.072 | [5] -0.071 | [6] 0.045 | [7] 0.025 | [8] 0.105 | [9] -0.017 | [10] 0.015

SLC30A5 (UniProt Q8TAD4)
inactive: [1] -0.001 | [2] -0.01 | [3] -0.051 | [4] 0.007 | [5] 0.097 | [6] 0.076 | [7] 0.064 | [8] 0.041 | [9] 0.03 | [10] -0.088

2 consecutive entries out of the list so far:
SLC25A11 (UniProt Q02978)
inactive: [1] -0.003 | [2] -0.055 | [3] -0.021 | [4] -0.003 | [5] -0.095 | [6] 0.024 | [7] 0.043 | [8] 0.05 | [9] 0.045 | [10] -0.017

SLC43A3 isoform 2 (UniProt Q8NBI5)
inactive: [1] -0.003 | [2] 0.026 | [3] -0.026 | [4] 0.072 | [5] -0.071 | [6] 0.045 | [7] 0.025 | [8] 0.105 | [9] -0.017 | [10] 0.015

Next part.

SLC35F2 (UniProt Q8IXU6)
inactive: [1] 0.195 | [2] 0.068 | [3] -0.037 | [4] 0.089 | [5] -0.13 | [6] -0.011 | [7] -0.042 | [8] 0.091 | [9] -0.03 | [10] -0.04

SLC12A6 isoform 2 (UniProt Q9UHW9)
inactive: [1] 0.127 | [2] -0.052 | [3] 0.002 | [4] 0.02 | [5] -0.042 | [6] -0.031 | [7] -0.047 | [8] 0.037 | [9] 0.035 | [10] -0.028

SLBP (UniProt Q14493)
inactive: [1] -0.148 | [2] -0.035 | [3] 0.112 | [4] 0.224 | [5] -0.152 | [6] -0.199 | [7] 0.034 | [8] 0.077 | [9] 0.004 | [10] 0.05

SLC25A20 (UniProt O43772)
inactive: [1] 0.021 | [2] -0.025 | [3] 0.015 | [4] -0.021 | [5] -0.043 | [6] -0.098 | [7] -0.007 | [8] 0.036 | [9] 0.059 | [10] -0.01

SLC25A12 (UniProt O75746)
inactive: [1] -0.01 | [2] -0.023 | [3] -0.025 | [4] -0.019 | [5] 0.084 | [6] 0.025 | [7] 0.003 | [8] 0.038 | [9] 0.009 | [10] 0.009

SLC4A7 isoform 7 (UniProt Q9Y6M7)
inactive: [1] -0.007 | [2] -0.026 | [3] -0.101 | [4] 0.144 | [5] -0.044 | [6] -0.089 | [7] 0.152 | [8] 0.058 | [9] -0.018

SLC2A3 (UniProt P11169)
inactive: [1] 0.02 | [2] -0.023 | [3] -0.057 | [4] 0.013 | [5] -0.037 | [6] -0.025 | [7] -0.005 | [8] 0.07 | [9] -0.005 | [10] 0.051

SLC29A3 (UniProt Q9BZD2)
inactive: [1] 0.009 | [2] -0.258 | [3] -0.015 | [4] -0.113 | [5] 0 | [6] -0.08 | [7] -0.08 | [8] 0.019 | [9] -0.118

SLC35A1 (UniProt P78382)
inactive: [1] 0.048 | [2] -0.021 | [3] -0.138 | [4] -0.051 | [5] -0.063 | [6] -0.097 | [7] 0.06 | [8] 0.06 | [9] -0.028

SLC11A2 isoform 3 (UniProt P49281)
inactive: [1] -0.052 | [2] -0.217 | [3] -0.139 | [4] 0.061 | [5] -0.09 | [6] 0.013 | [7] 0.028 | [8] 0.159 | [9] 0.006

SLC33A1 (UniProt O00400)
inactive: [1] 0.03 | [2] -0.068 | [3] 0.028 | [4] -0.005 | [5] 0.012 | [6] 0.01 | [7] 0 | [8] 0.002 | [9] 0.033 | [10] 0.054

SLC38A7 (UniProt Q9NVC3)
inactive: [1] -0.042 | [2] -0.098 | [3] 0.095 | [4] -0.077 | [5] -0.136 | [6] 0.01 | [7] 0.035 | [8] 0.069 | [9] -0.057 | [10] 0.022

SLC27A2 (UniProt O14975)
inactive: [1] 0.089 | [2] -0.033 | [3] 0.032 | [4] 0.257 | [5] -0.034 | [6] 0.046 | [7] 0.156 | [8] -0.052 | [9] 0.112 | [10] 0.034

SLC25A17 (UniProt O43808)
inactive: [1] 0.153 | [2] -0.036 | [3] 0.022 | [4] -0.099 | [5] -0.077 | [6] -0.083 | [7] -0.002 | [8] 0.034 | [9] 0.095 | [10] -0.107

SLC25A32 (UniProt Q9H2D1)
inactive: [1] -0.066 | [2] -0.005 | [3] -0.069 | [4] -0.052 | [5] -0.016 | [6] 0.026 | [7] 0.02 | [8] 0.088 | [9] -0.015 | [10] 0.018

SLC25A6 (UniProt P12236)
inactive: [1] -0.035 | [2] -0.04 | [3] -0.038 | [4] -0.03 | [5] -0.007 | [6] 0.028 | [7] -0.003 | [8] 0.051 | [9] -0.026 | [10] 0.04

SLC30A9 (UniProt Q6PML9)
inactive: [1] 0.01 | [2] -0.014 | [3] 0.047 | [4] 0.036 | [5] 0.057 | [6] -0.015 | [7] -0.003 | [8] 0.123 | [9] 0.022 | [10] 0.072

SLC25A16 (UniProt P16260)
inactive: [1] 0.04 | [2] 0.054 | [3] -0.012 | [4] 0.05 | [5] -0.164 | [6] -0.055 | [7] -0.036 | [8] -0.053 | [9] 0.001 | [10] -0.323

SLC30A10 (UniProt Q6XR72)
inactive: [1] 0.06 | [2] 0.032 | [3] -0.02 | [4] 0.005 | [5] -0.12 | [6] 0.003 | [7] 0.095 | [8] 0.032 | [9] 0.001 | [10] 0.095

SLC45A4 isoform 3 (UniProt Q5BKX6)
inactive: [1] 0.218 | [2] -0.173 | [3] -0.138 | [4] -0.028 | [5] -0.107 | [6] 0.005 | [7] 0.014 | [8] -0.009 | [9] -0.006 | [10] -0.01

SLC25A3 isoform 2 (UniProt Q00325)
inactive: [1] -0.051 | [2] -0.026 | [3] -0.01 | [4] 0.011 | [5] -0.038 | [6] -0.003 | [7] -0.003 | [8] 0.047 | [9] -0.034 | [10] -0.01

SLC25A44 (UniProt Q96H78)
inactive: [1] -0.013 | [2] 0.105 | [3] -0.101 | [4] 0.031 | [5] -0.064 | [6] 0.031 | [7] -0.067 | [8] 0.125 | [9] -0.012 | [10] 0.007

SLC35A4 (UniProt L0R6Q1)
inactive: [1] -0.044 | [2] -0.02 | [3] -0.085 | [4] 0.074 | [5] -0.055 | [6] -0.055 | [7] 0.058 | [8] 0.072 | [9] -0.027 | [10] -0.005

SLC38A2 (UniProt Q96QD8)
inactive: [1] -0.041 | [2] -0.205 | [3] 0.048 | [4] 0.011 | [5] -0.019 | [6] -0.122 | [7] -0.099 | [8] 0.097 | [9] -0.055

SLC4A2 (UniProt P04920)
inactive: [1] -0.088 | [2] -0.041 | [3] 0 | [4] -0.002 | [5] -0.016 | [6] 0.051 | [7] -0.081 | [8] -0.003 | [9] -0.023 | [10] 0.128

SLC18B1 (UniProt Q6NT16)
inactive: [1] 0.072 | [2] -0.094 | [3] -0.068 | [4] 0.083 | [5] 0.022 | [6] 0.058 | [7] 0.01 | [8] 0.087 | [9] -0.061 | [10] 0.067

SLC25A36 (UniProt Q96CQ1)
inactive: [1] 0.006 | [2] -0.069 | [3] 0.013 | [4] -0.064 | [5] -0.03 | [6] 0.083 | [7] -0.014 | [8] 0.001 | [9] 0.107 | [10] 0.052
